Data published in the supplement of paper PMC12823440, “Inhibitors supercharge kinase turnover through native proteolytic circuits” (Nature, 2025).
Where a name gives a salt, the structure may show the parent alone. This is one part of the list. Hit calls seldom repeat between salt and free forms of one compound.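 Kinases, fused to nanoluciferase, were expressed in K562 cells; luminescence was measured every 4 h from 2 to 18 h as percent of control (DMSO = 100%, positive control = 0%). A time point is decreased if signal falls significantly (2 sigma). Hits were called by the authors by a rule that is not shown; the count of time points alone does not decide it.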

The chains behind the UniProt entries cited, without tags or fusion partners. Where a name states a change or a piece, a line headed by the entry shows the natural chain unless it says otherwise.
UniProt P36888, whole entry: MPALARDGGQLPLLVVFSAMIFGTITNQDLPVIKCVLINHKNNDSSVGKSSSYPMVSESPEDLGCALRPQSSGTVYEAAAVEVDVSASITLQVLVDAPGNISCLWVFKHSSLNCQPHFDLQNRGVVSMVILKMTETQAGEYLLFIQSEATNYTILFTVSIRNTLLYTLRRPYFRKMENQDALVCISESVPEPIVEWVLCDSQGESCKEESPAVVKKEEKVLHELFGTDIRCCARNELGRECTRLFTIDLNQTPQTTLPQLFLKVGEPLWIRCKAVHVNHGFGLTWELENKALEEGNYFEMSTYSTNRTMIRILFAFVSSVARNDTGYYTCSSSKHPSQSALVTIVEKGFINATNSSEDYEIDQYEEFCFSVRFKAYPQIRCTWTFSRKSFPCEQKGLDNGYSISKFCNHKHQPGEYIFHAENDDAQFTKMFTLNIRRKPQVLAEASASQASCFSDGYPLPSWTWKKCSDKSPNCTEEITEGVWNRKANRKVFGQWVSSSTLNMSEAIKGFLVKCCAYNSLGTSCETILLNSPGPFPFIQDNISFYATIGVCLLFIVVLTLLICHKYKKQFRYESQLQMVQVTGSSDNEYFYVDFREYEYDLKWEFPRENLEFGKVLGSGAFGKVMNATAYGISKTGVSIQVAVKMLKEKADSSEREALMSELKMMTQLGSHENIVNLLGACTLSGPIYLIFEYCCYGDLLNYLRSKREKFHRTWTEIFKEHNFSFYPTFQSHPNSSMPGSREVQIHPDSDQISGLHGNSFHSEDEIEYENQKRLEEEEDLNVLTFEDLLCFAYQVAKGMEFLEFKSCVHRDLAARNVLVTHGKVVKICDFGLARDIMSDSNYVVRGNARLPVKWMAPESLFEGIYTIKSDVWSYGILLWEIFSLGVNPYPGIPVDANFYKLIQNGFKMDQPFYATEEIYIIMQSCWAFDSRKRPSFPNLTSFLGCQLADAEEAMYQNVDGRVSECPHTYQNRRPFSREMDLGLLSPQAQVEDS
UniProt P49840: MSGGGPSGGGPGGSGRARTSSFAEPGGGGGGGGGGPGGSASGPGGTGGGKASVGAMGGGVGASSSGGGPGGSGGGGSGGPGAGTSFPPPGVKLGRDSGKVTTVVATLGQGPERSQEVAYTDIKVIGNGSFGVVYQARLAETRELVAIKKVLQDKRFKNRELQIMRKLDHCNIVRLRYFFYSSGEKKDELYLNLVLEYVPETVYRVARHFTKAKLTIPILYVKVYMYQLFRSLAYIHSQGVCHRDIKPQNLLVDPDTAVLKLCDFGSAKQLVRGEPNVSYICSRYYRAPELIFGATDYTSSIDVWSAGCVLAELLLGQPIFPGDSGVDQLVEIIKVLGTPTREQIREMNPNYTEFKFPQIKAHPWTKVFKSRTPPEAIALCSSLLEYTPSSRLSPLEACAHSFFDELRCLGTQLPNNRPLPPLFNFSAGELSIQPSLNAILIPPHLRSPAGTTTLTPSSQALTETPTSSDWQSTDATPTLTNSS
UniProt P14616: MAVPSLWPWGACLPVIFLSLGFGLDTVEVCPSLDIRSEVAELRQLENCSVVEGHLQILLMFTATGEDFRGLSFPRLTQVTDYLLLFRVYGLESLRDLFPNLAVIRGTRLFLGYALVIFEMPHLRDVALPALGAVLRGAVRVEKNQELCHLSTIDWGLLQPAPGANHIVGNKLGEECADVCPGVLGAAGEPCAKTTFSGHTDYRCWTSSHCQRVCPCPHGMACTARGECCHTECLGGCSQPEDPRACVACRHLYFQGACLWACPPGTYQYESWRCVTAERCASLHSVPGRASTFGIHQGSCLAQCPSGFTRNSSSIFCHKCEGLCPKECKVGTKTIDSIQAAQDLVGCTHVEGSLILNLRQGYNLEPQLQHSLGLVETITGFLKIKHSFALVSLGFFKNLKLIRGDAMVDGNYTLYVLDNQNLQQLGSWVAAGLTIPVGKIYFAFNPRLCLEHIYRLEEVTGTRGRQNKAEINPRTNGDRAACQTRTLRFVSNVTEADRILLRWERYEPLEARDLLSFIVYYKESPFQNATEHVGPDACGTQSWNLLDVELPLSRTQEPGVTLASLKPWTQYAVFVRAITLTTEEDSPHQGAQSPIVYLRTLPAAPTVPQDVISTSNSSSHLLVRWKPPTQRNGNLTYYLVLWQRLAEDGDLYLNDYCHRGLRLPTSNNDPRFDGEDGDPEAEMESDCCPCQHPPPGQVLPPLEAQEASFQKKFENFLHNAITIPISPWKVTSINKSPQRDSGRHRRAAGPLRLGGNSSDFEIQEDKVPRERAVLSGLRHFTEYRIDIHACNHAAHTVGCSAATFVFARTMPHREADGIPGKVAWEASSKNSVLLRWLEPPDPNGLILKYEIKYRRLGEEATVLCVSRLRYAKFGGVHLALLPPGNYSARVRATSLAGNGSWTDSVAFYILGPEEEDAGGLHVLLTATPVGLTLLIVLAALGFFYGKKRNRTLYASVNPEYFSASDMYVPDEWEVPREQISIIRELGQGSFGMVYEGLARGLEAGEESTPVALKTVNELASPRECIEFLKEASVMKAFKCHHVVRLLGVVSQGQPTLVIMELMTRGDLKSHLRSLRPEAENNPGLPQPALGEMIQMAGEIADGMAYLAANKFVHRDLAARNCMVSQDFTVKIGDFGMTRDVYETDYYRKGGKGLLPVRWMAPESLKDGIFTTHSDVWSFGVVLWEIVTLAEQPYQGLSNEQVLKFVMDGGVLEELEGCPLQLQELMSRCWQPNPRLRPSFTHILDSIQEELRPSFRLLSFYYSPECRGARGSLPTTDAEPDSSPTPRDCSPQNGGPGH
UniProt P23458: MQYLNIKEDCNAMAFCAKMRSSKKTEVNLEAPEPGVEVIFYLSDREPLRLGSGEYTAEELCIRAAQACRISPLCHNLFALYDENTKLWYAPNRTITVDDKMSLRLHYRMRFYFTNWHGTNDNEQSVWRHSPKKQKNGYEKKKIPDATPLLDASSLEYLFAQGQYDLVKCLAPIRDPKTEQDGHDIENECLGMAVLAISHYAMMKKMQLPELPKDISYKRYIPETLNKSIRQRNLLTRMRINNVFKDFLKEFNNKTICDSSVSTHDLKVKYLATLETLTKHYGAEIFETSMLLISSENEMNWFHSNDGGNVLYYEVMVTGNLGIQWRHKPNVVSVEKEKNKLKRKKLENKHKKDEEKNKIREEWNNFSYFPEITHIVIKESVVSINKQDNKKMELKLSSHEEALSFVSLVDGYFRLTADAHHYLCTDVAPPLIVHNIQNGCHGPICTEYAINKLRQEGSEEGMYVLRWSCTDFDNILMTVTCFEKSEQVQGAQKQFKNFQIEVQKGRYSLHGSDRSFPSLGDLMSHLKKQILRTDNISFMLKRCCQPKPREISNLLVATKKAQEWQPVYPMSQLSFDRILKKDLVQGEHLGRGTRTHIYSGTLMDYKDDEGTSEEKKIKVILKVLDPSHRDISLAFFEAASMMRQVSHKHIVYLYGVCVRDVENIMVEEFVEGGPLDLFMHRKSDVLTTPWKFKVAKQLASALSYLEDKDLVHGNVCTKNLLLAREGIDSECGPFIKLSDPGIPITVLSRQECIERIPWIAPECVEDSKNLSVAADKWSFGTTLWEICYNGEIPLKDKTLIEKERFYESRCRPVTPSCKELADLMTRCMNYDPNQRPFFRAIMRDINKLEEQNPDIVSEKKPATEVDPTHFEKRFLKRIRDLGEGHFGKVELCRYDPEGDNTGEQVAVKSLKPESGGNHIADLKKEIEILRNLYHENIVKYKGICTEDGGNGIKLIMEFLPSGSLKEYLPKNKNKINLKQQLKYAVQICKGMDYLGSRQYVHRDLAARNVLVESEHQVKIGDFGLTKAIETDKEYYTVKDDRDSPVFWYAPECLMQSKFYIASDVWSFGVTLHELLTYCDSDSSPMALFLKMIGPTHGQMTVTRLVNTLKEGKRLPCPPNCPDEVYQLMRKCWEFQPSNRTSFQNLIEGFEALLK
UniProt P53667: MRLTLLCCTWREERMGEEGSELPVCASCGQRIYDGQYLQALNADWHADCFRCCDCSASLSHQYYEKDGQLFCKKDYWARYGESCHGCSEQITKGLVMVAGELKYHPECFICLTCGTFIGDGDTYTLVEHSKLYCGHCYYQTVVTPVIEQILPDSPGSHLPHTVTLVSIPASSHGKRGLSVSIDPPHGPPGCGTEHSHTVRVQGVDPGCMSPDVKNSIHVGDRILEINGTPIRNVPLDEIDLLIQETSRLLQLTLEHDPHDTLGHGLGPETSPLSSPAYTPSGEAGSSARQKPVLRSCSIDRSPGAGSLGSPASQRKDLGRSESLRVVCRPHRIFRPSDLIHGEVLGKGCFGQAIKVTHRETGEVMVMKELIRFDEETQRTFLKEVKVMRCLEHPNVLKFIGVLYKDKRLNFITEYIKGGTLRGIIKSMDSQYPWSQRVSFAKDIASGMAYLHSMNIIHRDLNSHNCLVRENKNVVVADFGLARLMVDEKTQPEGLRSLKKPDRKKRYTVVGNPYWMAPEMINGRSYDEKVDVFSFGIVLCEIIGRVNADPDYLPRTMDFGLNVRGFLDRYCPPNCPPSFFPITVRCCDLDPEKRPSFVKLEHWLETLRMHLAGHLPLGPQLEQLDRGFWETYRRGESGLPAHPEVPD
UniProt Q8IWU2: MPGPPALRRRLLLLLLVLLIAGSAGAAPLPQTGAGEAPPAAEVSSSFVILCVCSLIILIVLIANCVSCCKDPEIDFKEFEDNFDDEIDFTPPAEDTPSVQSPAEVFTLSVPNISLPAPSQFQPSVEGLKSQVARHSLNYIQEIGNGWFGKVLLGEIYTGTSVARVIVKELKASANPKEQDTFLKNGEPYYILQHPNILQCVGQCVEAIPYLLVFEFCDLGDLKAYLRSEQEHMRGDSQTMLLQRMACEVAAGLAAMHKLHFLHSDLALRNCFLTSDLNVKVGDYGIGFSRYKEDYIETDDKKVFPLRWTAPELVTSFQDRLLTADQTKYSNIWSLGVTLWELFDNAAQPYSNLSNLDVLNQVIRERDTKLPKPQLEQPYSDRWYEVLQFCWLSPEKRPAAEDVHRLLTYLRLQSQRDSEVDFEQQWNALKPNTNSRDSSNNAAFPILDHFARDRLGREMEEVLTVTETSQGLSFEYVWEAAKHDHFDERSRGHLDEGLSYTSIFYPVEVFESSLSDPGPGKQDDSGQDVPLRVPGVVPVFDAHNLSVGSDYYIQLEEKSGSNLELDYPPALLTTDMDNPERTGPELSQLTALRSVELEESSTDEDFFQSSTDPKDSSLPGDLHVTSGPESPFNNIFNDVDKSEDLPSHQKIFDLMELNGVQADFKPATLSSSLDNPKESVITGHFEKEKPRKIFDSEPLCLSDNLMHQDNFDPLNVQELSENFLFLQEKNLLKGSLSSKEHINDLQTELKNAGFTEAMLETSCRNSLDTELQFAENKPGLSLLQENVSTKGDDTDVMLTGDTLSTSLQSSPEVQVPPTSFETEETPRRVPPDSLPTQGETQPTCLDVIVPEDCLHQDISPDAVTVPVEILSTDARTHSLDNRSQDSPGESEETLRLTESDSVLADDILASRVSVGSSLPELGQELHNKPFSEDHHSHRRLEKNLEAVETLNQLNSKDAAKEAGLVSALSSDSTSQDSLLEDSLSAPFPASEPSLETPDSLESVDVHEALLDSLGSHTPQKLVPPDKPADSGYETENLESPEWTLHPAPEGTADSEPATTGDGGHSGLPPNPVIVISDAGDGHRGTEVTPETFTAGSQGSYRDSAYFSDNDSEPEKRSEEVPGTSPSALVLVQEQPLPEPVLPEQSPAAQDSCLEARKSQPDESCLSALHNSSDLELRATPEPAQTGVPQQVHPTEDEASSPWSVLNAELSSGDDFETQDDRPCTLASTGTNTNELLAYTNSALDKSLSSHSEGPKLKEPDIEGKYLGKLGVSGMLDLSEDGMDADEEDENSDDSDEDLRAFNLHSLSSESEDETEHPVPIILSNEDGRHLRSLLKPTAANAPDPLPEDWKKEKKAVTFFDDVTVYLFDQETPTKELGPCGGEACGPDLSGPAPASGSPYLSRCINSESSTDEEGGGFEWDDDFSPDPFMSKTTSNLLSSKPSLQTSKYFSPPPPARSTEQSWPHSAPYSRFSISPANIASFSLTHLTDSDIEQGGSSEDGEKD
UniProt P07948: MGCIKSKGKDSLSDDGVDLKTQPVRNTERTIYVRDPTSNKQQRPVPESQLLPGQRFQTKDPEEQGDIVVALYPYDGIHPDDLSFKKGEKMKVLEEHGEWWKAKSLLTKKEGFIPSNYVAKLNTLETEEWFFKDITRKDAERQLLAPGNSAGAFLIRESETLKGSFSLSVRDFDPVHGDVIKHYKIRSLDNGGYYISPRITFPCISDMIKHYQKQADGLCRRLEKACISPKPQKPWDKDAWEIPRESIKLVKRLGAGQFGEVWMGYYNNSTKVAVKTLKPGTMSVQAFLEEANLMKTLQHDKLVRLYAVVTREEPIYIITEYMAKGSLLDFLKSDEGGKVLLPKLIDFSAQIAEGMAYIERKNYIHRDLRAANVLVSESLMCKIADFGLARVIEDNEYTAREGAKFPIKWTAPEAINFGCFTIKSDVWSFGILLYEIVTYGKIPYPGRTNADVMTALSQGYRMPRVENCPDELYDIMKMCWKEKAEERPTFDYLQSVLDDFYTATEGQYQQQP

What was measured:
Experiment in all cases: kinase-Nluc reporter destabilization hit call (1 = scored as downregulated) (binary); higher = compound decreases kinase abundance
Details in all cases: K562; 2-18 h
[1] = target: ERN1 (UniProt O75460)
[2] = target: FGFR1 (UniProt P11362)
[3] = target: FGFR2 (UniProt P21802)
[4] = target: FGFR3 (UniProt P22607)
[5] = target: FGR (UniProt P09769)
[6] = target: FLT3 (UniProt P36888)
[7] = target: FYN (UniProt P06241)
[8] = target: GSK3A (UniProt P49840)
[9] = target: HER2 (UniProt P04626)
[10] = target: INSRR (UniProt P14616)
[11] = target: IRAK3 (UniProt Q9Y616)
[12] = target: JAK1 (UniProt P23458)
[13] = target: LCK (UniProt P06239)
[14] = target: LIMK1 (UniProt P53667)
[15] = target: LIMK2 (UniProt P53671)
[16] = target: LMTK2 (UniProt Q8IWU2)
[17] = target: LYN (UniProt P07948)
[18] = target: MAP2K1 (UniProt Q02750)
[19] = target: MAP2K2 (UniProt P36507)
[20] = target: MAP4K2 (UniProt Q12851)

Measured: kinase-Nluc reporter destabilization hit call

COc1cc2c(Nc3ccc(Br)cc3F)ncnc2cc1OCCn1ccnn1 (10 µM)
inactive: [1] 0 | [2] 0 | [3] 0 | [4] 0 | [5] 0 | [6] 0 | [7] 0 | [8] 0 | [9] 0 | [10] 0 | [11] 0 | [12] 0 | [13] 0 | [14] 0 | [15] 0 | [16] 0 | [17] 0 | [18] 0 | [19] 0 | [20] 0

O=C([O-])c1ccccc1O.[Na+] [Sodium Salicylate] (10 µM)
inactive: [1] 0 | [2] 0 | [3] 0 | [4] 0 | [5] 0 | [6] 0 | [7] 0 | [8] 0 | [9] 0 | [10] 0 | [11] 0 | [12] 0 | [13] 0 | [14] 0 | [15] 0 | [16] 0 | [17] 0 | [18] 0 | [19] 0 | [20] 0

COc1cc2nc(C)nc(N[C@H](C)c3cc(N)cc(C(F)(F)F)c3)c2cc1O[C@H]1CCOC1 (10 µM)
inactive: [1] 0 | [2] 0 | [3] 0 | [4] 0 | [5] 0 | [6] 0 | [7] 0 | [8] 0 | [9] 0 | [10] 0 | [11] 0 | [12] 0 | [13] 0 | [14] 0 | [15] 0 | [16] 0 | [17] 0 | [18] 0 | [19] 0 | [20] 0

Oc1ccc(-c2nc(-c3ccc(F)cc3)c(-c3ccncc3)[nH]2)cc1 (2.5 µM)
inactive: [1] 0 | [2] 0 | [3] 0 | [4] 0 | [5] 0 | [6] 0 | [7] 0 | [8] 0 | [9] 0 | [10] 0 | [11] 0 | [12] 0 | [13] 0 | [14] 0 | [15] 0 | [16] 0 | [17] 0 | [18] 0 | [19] 0 | [20] 0

Cc1nc(N)sc1-c1ccnc(Nc2ccc(N3CCOCC3)cc2)n1 (10 µM)
inactive: [1] 0 | [2] 0 | [3] 0 | [4] 0 | [5] 0 | [6] 0 | [7] 0 | [8] 0 | [9] 0 | [10] 0 | [11] 0 | [12] 0 | [13] 0 | [14] 0 | [15] 0 | [16] 0 | [17] 0 | [18] 0 | [19] 0 | [20] 0

Cc1[nH]c(/C=C2\C(=O)Nc3ccc(S(=O)(=O)Cc4c(Cl)cccc4Cl)cc32)c(C)c1C(=O)N1CCC[C@@H]1CN1CCCC1 (2.5 µM)
inactive: [1] 0 | [2] 0 | [3] 0 | [4] 0 | [5] 0 | [6] 0 | [7] 0 | [8] 0 | [9] 0 | [10] 0 | [11] 0 | [12] 0 | [13] 0 | [14] 0 | [15] 0 | [16] 0 | [17] 0 | [18] 0 | [19] 0 | [20] 0

COc1cc(OC)cc(-c2cc3cnc(N)nc3nc2NC(=O)NC(C)(C)C)c1 (10 µM)
inactive: [1] 0 | [2] 0 | [3] 0 | [4] 0 | [5] 0 | [6] 0 | [7] 0 | [8] 0 | [9] 0 | [10] 0 | [11] 0 | [12] 0 | [13] 0 | [14] 0 | [15] 0 | [16] 0 | [17] 0 | [18] 0 | [19] 0 | [20] 0

CN1CCN(c2ccc(Nc3cc(-c4cccc(-n5ccc6cc(C7CC7)cc(F)c6c5=O)c4CO)cn(C)c3=O)nc2)CC1 (2.5 µM)
inactive: [1] 0 | [2] 0 | [3] 0 | [4] 0 | [5] 0 | [6] 0 | [7] 0 | [8] 0 | [9] 0 | [10] 0 | [11] 0 | [12] 0 | [13] 0 | [14] 0 | [15] 0 | [16] 0 | [17] 0 | [18] 0 | [19] 0 | [20] 0

CCCCOc1c(C(=O)c2c(F)cc(C)cc2F)c[nH]c2nncc1-2 (10 µM)
inactive: [1] 0 | [2] 0 | [3] 0 | [4] 0 | [5] 0 | [6] 0 | [7] 0 | [8] 0 | [9] 0 | [10] 0 | [11] 0 | [12] 0 | [13] 0 | [14] 0 | [15] 0 | [16] 0 | [17] 0 | [18] 0 | [19] 0 | [20] 0

COc1cc(C)c(Sc2cnc(NC(=O)c3ccc(CNC(C)C(C)(C)C)cc3)s2)cc1C(=O)N1CCN(C(C)=O)CC1 (stereo not given) (2.5 µM)
inactive: [1] 0 | [2] 0 | [3] 0 | [4] 0 | [5] 0 | [6] 0 | [7] 0 | [8] 0 | [9] 0 | [10] 0 | [11] 0 | [12] 0 | [13] 0 | [14] 0 | [15] 0 | [16] 0 | [17] 0 | [18] 0 | [19] 0 | [20] 0

Some of these compounds in order of molar mass, ascending:
CCCCOc1c(C(=O)c2c(F)cc(C)cc2F)c[nH]c2nncc1-2 (10 µM)
inactive: [1] 0 | [2] 0 | [3] 0 | [4] 0 | [5] 0 | [6] 0 | [7] 0 | [8] 0 | [9] 0 | [10] 0 | [11] 0 | [12] 0 | [13] 0 | [14] 0 | [15] 0 | [16] 0 | [17] 0 | [18] 0 | [19] 0 | [20] 0

COc1cc(OC)cc(-c2cc3cnc(N)nc3nc2NC(=O)NC(C)(C)C)c1 (10 µM)
inactive: [1] 0 | [2] 0 | [3] 0 | [4] 0 | [5] 0 | [6] 0 | [7] 0 | [8] 0 | [9] 0 | [10] 0 | [11] 0 | [12] 0 | [13] 0 | [14] 0 | [15] 0 | [16] 0 | [17] 0 | [18] 0 | [19] 0 | [20] 0

Cc1[nH]c(/C=C2\C(=O)Nc3ccc(S(=O)(=O)Cc4c(Cl)cccc4Cl)cc32)c(C)c1C(=O)N1CCC[C@@H]1CN1CCCC1 (2.5 µM)
inactive: [1] 0 | [2] 0 | [3] 0 | [4] 0 | [5] 0 | [6] 0 | [7] 0 | [8] 0 | [9] 0 | [10] 0 | [11] 0 | [12] 0 | [13] 0 | [14] 0 | [15] 0 | [16] 0 | [17] 0 | [18] 0 | [19] 0 | [20] 0

The list goes on.

Cc1cc(F)c(C(=O)Nc2cccc(-c3nncn3C(C)C)n2)cc1-n1cnc(C2CC2)c1 [Selonsertib] (10 µM)
inactive: [1] 0 | [2] 0 | [3] 0 | [4] 0 | [5] 0 | [6] 0 | [7] 0 | [8] 0 | [9] 0 | [10] 0 | [11] 0 | [12] 0 | [13] 0 | [14] 0 | [15] 0 | [16] 0 | [17] 0 | [18] 0 | [19] 0 | [20] 0

Cc1ccc(NC(=O)Nc2nnc(Sc3ncnc4cc(OCCCN5CCOCC5)ccc34)s2)cc1 (10 µM)
inactive: [1] 0 | [2] 0 | [3] 0 | [4] 0 | [5] 0 | [6] 0 | [7] 0 | [8] 0 | [9] 0 | [10] 0 | [11] 0 | [12] 0 | [13] 0 | [14] 0 | [15] 0 | [16] 0 | [17] 0 | [18] 0 | [19] 0 | [20] 0

C=CC(=O)Nc1ccc2ncnc(Nc3cccc(Br)c3)c2c1 (10 µM)
inactive: [1] 0 | [2] 0 | [3] 0 | [4] 0 | [5] 0 | [6] 0 | [7] 0 | [8] 0 | [9] 0 | [10] 0 | [11] 0 | [12] 0 | [13] 0 | [14] 0 | [15] 0 | [16] 0 | [17] 0 | [18] 0 | [19] 0 | [20] 0

O=S(=O)(NCCNC/C=C/c1ccc(Br)cc1)c1cccc2cnccc12 [H-89 (dihydrochloride)] (10 µM)
inactive: [1] 0 | [2] 0 | [3] 0 | [4] 0 | [5] 0 | [6] 0 | [7] 0 | [8] 0 | [9] 0 | [10] 0 | [11] 0 | [12] 0 | [13] 0 | [14] 0 | [15] 0 | [16] 0 | [17] 0 | [18] 0 | [19] 0 | [20] 0

COc1cc2ncnc(Nc3cccc(O)c3)c2cc1OC (10 µM)
inactive: [1] 0 | [2] 0 | [3] 0 | [4] 0 | [5] 0 | [6] 0 | [7] 0 | [8] 0 | [9] 0 | [10] 0 | [11] 0 | [12] 0 | [13] 0 | [14] 0 | [15] 0 | [16] 0 | [17] 0 | [18] 0 | [19] 0 | [20] 0

Cc1cc(CS(=O)(=O)c2ccccc2)cc(OCc2ccc(CN3CCC[C@@H]3CO)cc2)c1 [PF-543 (Citrate)] (10 µM)
inactive: [1] 0 | [2] 0 | [3] 0 | [4] 0 | [5] 0 | [6] 0 | [7] 0 | [8] 0 | [9] 0 | [10] 0 | [11] 0 | [12] 0 | [13] 0 | [14] 0 | [15] 0 | [16] 0 | [17] 0 | [18] 0 | [19] 0 | [20] 0

O=C(O)CCNC(=O)c1ccc(/N=N/c2ccc(O)c(C(=O)O)c2)cc1 [Balsalazide] (10 µM)
inactive: [1] 0 | [2] 0 | [3] 0 | [4] 0 | [5] 0 | [6] 0 | [7] 0 | [8] 0 | [9] 0 | [10] 0 | [11] 0 | [12] 0 | [13] 0 | [14] 0 | [15] 0 | [16] 0 | [17] 0 | [18] 0 | [19] 0 | [20] 0
